Measurements as given in PubChem BioAssay AID588497 (NMMLSC, 2011).
In all, about 360,000 compounds went through this assay and about 780 (0.22%) were called active. Inconclusive results, whose numbers are uncertain, are shown with a selection of clear calls. No stated cut-off is given here; in the data, active means inhibition above about 35% (passing the limit was not always enough); inconclusive means no clear call, values can overlap the other calls.

tested on: Botulinum neurotoxin type F light chain protease (Clostridium botulinum); test: BoNT/F light chain protease inhibitors, primary screen, biochemical, flow cytometry, MLPCN library (AID 588497); conditions: Multiplex microsphere protease cleavage assay, at 10 µM, stronger effect = higher value; further: plate controls were buffer without enzyme for full effect and enzyme alone for no effect

Row | Compound | inhibition
1 | Cc1ccccc1N1CCN(Cc2ccc(Br)o2)CC1 | inconclusive: 12.9%
2 | O=C1c2ccccc2NC(c2ccccc2)N1c1ccc(O)cc1 (stereo unspecified) | inactive: -3.7%
3 | CCOc1ccccc1NC(=O)COC(=O)c1c[nH]c2ccccc12 | inconclusive: 5.7%
4 | OC[C@@H]1CN(CCN2CCOCC2)C[C@H](n2cnc3c(Nc4ccccc4)ncnc32)O1 | inactive: -0.8%
5 | COc1ccc(/C=C/C(=O)c2ccc[nH]2)c(OC)c1OC | inactive: 18.2%
6 | O=C(CN1CCC(O)(c2cccc(C(F)(F)F)c2)CC1)NCCc1ccccc1 | inconclusive: 0.8%
7 | CCCN(CCO)C1CCN(CCc2ccccc2)CC1 | inconclusive: 11.2%
8 | Cc1occc1C(=O)O/N=C(\N)c1ccc(Cl)cc1 | active: 40%
9 | Cc1cc(-c2nnc(SCC(=O)Nc3ccccc3Cl)n2C)no1 | inconclusive: 15.1%
10 | Cc1cccc(N(Cc2ccccc2)C(=O)CSC(C)C(=O)Nc2cc(C)on2)c1 (stereo unspecified) | inconclusive: -20.1%
11 | CCCn1c(COc2ccccc2)nc2ccccc21 | active: 41.6%
12 | CC1(/[N+]([O-])=C/c2cccc(Cl)c2)CCCCC1=O (stereo unspecified) | inconclusive: 35%
13 | O=c1c2ccccc2ncn1CCCCOc1ccccc1F | inconclusive: -5.8%
14 | CCOC(=O)c1ccc(Nc2nc(C)cc(C)n2)cc1 | inactive: -10.2%
15 | CCOc1ccc(NC(=O)CC2CC(C)(C)OC2=O)cc1 (stereo unspecified) | inconclusive: -28%
16 | O=C(OCC#CCSc1nnc(-c2cccc3ccccc23)o1)c1ccc(Cl)cc1 | inactive: -2.9%
17 | Cc1ccc(NC2=CC(=O)C(=O)c3ccccc32)c(C)c1 | inconclusive: 1.2%
18 | CCOC(=O)C1C(c2ccc([N+](=O)[O-])cc2)C2C(=O)NN=C2CC1(C)O (stereo unspecified) | inactive: -6.1%
19 | CCCC[n+]1ccn(-c2nc3c([N+](=O)[O-])cccc3n2C)c1 | inconclusive: -11.7%
20 | O=C(CNc1cccc2ccccc12)N/N=C/c1ccc([N+](=O)[O-])o1 | inactive: -2.9%
21 | Cc1c(C(=O)NCCSCc2cccc(C(F)(F)F)c2)cnn1-c1ccc(Cl)cc1 | inconclusive: 70.1%
22 | CCOC(=O)c1c(NC(NC(=O)C(C)C)C(Cl)(Cl)Cl)sc2c1CCC2 (stereo unspecified) | active: 47%
23 | O=C(Nc1cccc(C(F)(F)F)c1)c1sc(Cl)nc1C(F)(F)F | active: 40.1%

Row | Compound | inhibition
24 | O=C(NC1CC2CCC(C1)N2Cc1ccccc1)c1ccccc1Br (stereo unspecified) | inconclusive: -0.9%
25 | COc1ccc(-c2c[n+](CC(=O)c3ccccc3)c3n2CCCCC3)cc1 | inconclusive: -92.8%
26 | C=CCn1c(C)nnc1SCC(=O)c1c(N)n(C2CC2)c(=O)[nH]c1=O | inactive: 1.9%
27 | CCOc1ccccc1-n1c(O)c(C=NCCCn2ccnc2)c(=O)[nH]c1=O | inconclusive: 19%
28 | COCCCNS(=O)(=O)c1ccc2[nH]c3c(c2c1)CCCCC3 | inconclusive: -19.3%
29 | COC(=O)c1cnn(-c2ccc(F)cc2F)c1/C=N/NC(N)=S | inconclusive: 3.2%
30 | Cc1ccc(C(O)P(=O)(OCc2ccccc2)c2ccc(N(C)C)cc2)cc1 (stereo unspecified) | inconclusive: -30%
31 | Cc1nn(-c2ccccc2)nc1C(=O)Nc1nnc(C(F)(F)F)s1 | inconclusive: 8.4%
32 | CN(C)c1ccc(/C=N/Nc2nncc3ccccc23)cc1 | inactive: -23.5%
33 | Cn1c(SCc2cccnc2)nc2cccnc21 | inconclusive: 15.1%
34 | CCCCn1c(=O)c(-c2ccccc2)c(O)c2ccccc21 | inactive: 0.3%
35 | Nc1nc2ccc(Cl)cc2cc1C(=O)NCc1ccc(Oc2ccccc2)cc1 | inactive: -2.2%
36 | COC(=O)c1ccc(NC(=S)NN2CCCCC2c2cccnc2)cc1 (stereo unspecified) | inconclusive: 29.7%
37 | CCn1c(=O)c(C(=O)NCc2ccc3c(c2)OCO3)c(O)c2ccccc21 | inconclusive: -7.5%
38 | CCc1cc(C(=O)c2ccc(OC)cc2)c(NC(=O)CN2CCN(C)CC2)s1 | inconclusive: -56.3%
39 | COc1cccc(-c2nnc(N(C)C(=O)C3CCOC3)s2)c1 (stereo unspecified) | inconclusive: -11.5%
40 | O=c1c2c(n3nnnc3n1-c1ccccc1)-c1ccccc1CC21CCCC1 | inconclusive: -24.6%
41 | C=CCn1c(O)c(C(C)=NC(C)c2ccccc2)c(=O)[nH]c1=O (stereo unspecified) | inconclusive: 30.2%
42 | CCOP(=O)(OCC)/C(=N/OC(=O)c1ccccc1C)C(N)=O | inactive: -2.5%
43 | CSCCC(NC(=O)c1ccccc1Cl)C(=O)N1CC(C)OC(C)C1 (stereo unspecified) | inactive: -4.5%
44 | CC1(C)O[C@@H]2[C@H](O1)[C@@H](CO)O[C@H]2n1cnc2c(=O)[nH]cnc21 | inactive: 1.5%
45 | COC(=O)c1ccc(OC)c(OC2CCCC2)c1 | inconclusive: -113%
46 | COc1ccc2c(c1)c(C(=O)N/N=C/c1ccccc1Cl)c(C)n2C | inconclusive: -45.7%

Records 37 to 40 of the list above:
Row | Compound | inhibition
37 | CCn1c(=O)c(C(=O)NCc2ccc3c(c2)OCO3)c(O)c2ccccc21 | inconclusive: -7.5%
38 | CCc1cc(C(=O)c2ccc(OC)cc2)c(NC(=O)CN2CCN(C)CC2)s1 | inconclusive: -56.3%
39 | COc1cccc(-c2nnc(N(C)C(=O)C3CCOC3)s2)c1 (stereo unspecified) | inconclusive: -11.5%
40 | O=c1c2c(n3nnnc3n1-c1ccccc1)-c1ccccc1CC21CCCC1 | inconclusive: -24.6%

Further records.

Row | Compound | inhibition
47 | COc1ccc(C(=O)Nc2ccc3c(c2)nc(CN2CCN(C(C)=O)CC2)n3C)cc1 | inconclusive: -12%
48 | CCOC(=O)C1=C(COC(=O)c2ccc(C)s2)NC(=O)NC1C (stereo unspecified) | inconclusive: -4.2%
49 | CC1CCCCC1NC(=O)c1cc(S(=O)(=O)N2CCOCC2)ccc1Cl (stereo unspecified) | inactive: -4.3%
50 | CCSc1nnc([C@H](Cc2ccccc2)NC(=O)OC(C)(C)C)o1 | inactive: -2.5%
51 | CC1CN=C(N(C(=O)Nc2ccccc2)C(C)c2ccccc2)S1 (stereo unspecified) | inconclusive: 76.5%
52 | O=C(CCn1c(=O)sc2ccccc21)NC1=NCCS1 | inactive: -11.5%
53 | CCN(C(=O)COC(=O)CCCOc1ccccc1)c1c(N)n(Cc2ccccc2)c(=O)[nH]c1=O | inactive: 6.2%
54 | CN(C)c1nc(N)ncc1-c1ccc(Oc2ccccc2)cc1 | inactive: -6.8%
55 | Cc1ccccc1-n1cc(CNC(=O)CCc2nnc(CCc3ccccc3)o2)cn1 | inactive: -7.9%
56 | CC(=O)Nc1ccc2sccc2c1 | inactive: -0.4%
57 | Cn1ncc([N+](=O)[O-])c1C(=O)Nc1ccc(-c2nc3ccccc3o2)cc1 | inactive: -6.3%
58 | COc1ccc(NC(=O)CN(c2ccccc2F)S(=O)(=O)c2ccc(C)cc2)cc1 | inconclusive: 20.1%
59 | CCOC(=O)C1CCN(C(=O)CCC(=O)NCCc2ccc(Cl)cc2)CC1 | inconclusive: 5.9%
60 | Oc1ccccc1/C=N/NC(=S)NC1CC2CCC1C2 (stereo unspecified) | inconclusive: 10.2%
61 | O=C(Cc1ccsc1)NNC(=O)c1ccccc1Cl | inconclusive: 7.1%
62 | CCCCNC(=O)COC(=O)CCC(=O)c1ccc(F)cc1 | inconclusive: 28.5%
63 | CCc1cc(=O)oc2cc(C)cc(OC(C)C(=O)NCc3ccncc3)c12 (stereo unspecified) | inactive: 1.1%
64 | CCCCCCOC(=O)Nc1ccc(S(=O)(=O)Nc2cccc([N+](=O)[O-])c2)cc1 | inactive: 8.4%
65 | Oc1c(Br)cc(CNC2CCCCC2)cc1Br | inactive: -5.7%
66 | COc1ccc(OC)c(S(=O)(=O)N2CCN(c3ccccc3)CC2)c1 | inconclusive: -18.7%
67 | CCc1ccc(NC(=O)C(=O)c2ccccc2NC(C)=O)cc1 | inconclusive: -2%
68 | CC(C)=CC(=O)N1CCCC(N2CCN(c3ccc(F)cc3)CC2)C1 (stereo unspecified) | inconclusive: -6.4%
69 | COc1cccc(C2(C)NC(=O)N(CC(=O)Nc3ccc(N4CCOCC4)cc3)C2=O)c1 (stereo unspecified) | inactive: -13%

Row | Compound | inhibition
70 | COc1ccccc1N1CCN(c2ccc([N+](=O)[O-])cn2)CC1 | inconclusive: -22.4%
71 | O=C1C2C3C=CC(C3=C(c3ccccc3)c3ccccc3)C2C(=O)N1CCO (stereo unspecified) | inactive: -0.4%
72 | COc1ccc(CN2C(=O)c3ccccc3C2C(=O)NCC2CCCO2)c(OC)c1 (stereo unspecified) | inconclusive: -47.6%
73 | Clc1ccc(Cl)c(OCCCCN2CCNCC2)c1 | inconclusive: -18.3%
74 | CCCCCN(C(=O)COC(=O)COc1c(C)cc(C)cc1C)c1c(N)n(CCCC)c(=O)[nH]c1=O | inconclusive: 0.9%
75 | O=C(Cc1c(F)cccc1Cl)OCC(=O)N1CCN(c2ccccc2)CC1 | inactive: -1.7%
76 | CC(Nc1nc(Nc2ccc(F)cc2)nc(SCC(N)=O)n1)c1ccccc1 (stereo unspecified) | inconclusive: 9.4%
77 | CNc1ccc(/C=C(\C#N)C(=O)Nc2ccccn2)cc1[N+](=O)[O-] | active: 37.5%
78 | CCOc1ccccc1C1C(C#N)=C(N)SC(N)=C1C#N | active: 50.7%
79 | CCN(CC)S(=O)(=O)c1cccc(NC(=O)C2SC(=Nc3ccc(C)cc3C)C(C(=O)NC(C)COC)=C2N)c1 (stereo unspecified) | inconclusive: -11.4%
80 | CC(C)CN(C(=O)CCCSc1nc2ccccc2[nH]1)c1c(N)n(Cc2ccccc2)c(=O)[nH]c1=O | inconclusive: 8.7%
81 | O=C(O)c1ccc(-c2ccc(/C=N/Nc3ccc([N+](=O)[O-])cc3)o2)cc1 | inconclusive: -9.1%
82 | CCOc1ccccc1NC(=S)N1CCN(c2ccccc2F)CC1 | inconclusive: -11.7%
83 | Fc1ccccc1CNCc1ccc2c(c1)OCO2 | inconclusive: -13%
84 | O=C1C2C3C=CC(C3)C2C(=O)N1CNc1ccccn1 (stereo unspecified) | inactive: -3.6%
85 | COc1ccc(C(=O)CN2CCN(S(=O)(=O)c3cccc([N+](=O)[O-])c3)CC2)cc1 | inactive: 3.9%
86 | COC(=O)CCCNC(=O)CCc1nnc(-c2ccc(-c3ccccc3)cc2)o1 | inconclusive: 7.3%
87 | CC(O)(CS(=O)(=O)c1ccccc1)C(=O)Nc1cccc(C(F)(F)F)c1 (stereo unspecified) | inactive: 0.3%
88 | Cn1cc(/C=N/NC(=O)c2ccccc2O)c2ccccc21 | inconclusive: -14.5%
89 | Nc1c(C(=O)N/N=C/c2cccnc2)oc2nc(-c3ccccc3)cc(-c3ccco3)c12 | inconclusive: 48.1%
90 | O=C(CSc1cccc[n+]1[O-])NC1CCCCC1 | inconclusive: 5.6%
91 | CC(C)n1c(=S)[nH]c2cc(C(F)(F)F)ccc21 | inconclusive: 36.5%
